The source of these data is patent publication US10450297B2, “Sulfonyl amide derivatives for the treatment of abnormal cell growth” (Pfizer, Inc., priority 2007, dated 2019).

Protein sequences, listed by entry. Tags and fused reporters are not part of them. Residues count along the entry.
UniProt Q05397, 410-689 limits assumed: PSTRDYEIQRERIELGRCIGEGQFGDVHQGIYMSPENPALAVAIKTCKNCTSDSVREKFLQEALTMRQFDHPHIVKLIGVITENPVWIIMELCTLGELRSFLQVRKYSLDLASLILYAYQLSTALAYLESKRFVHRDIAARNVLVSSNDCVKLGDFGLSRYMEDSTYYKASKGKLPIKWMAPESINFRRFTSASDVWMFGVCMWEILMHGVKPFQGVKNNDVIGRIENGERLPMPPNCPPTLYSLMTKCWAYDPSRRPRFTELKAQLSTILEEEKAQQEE

This test concerns the target FAK kinase (catalytic construct FAK(410-689)) (Homo sapiens (Human), UniProt Q05397). As to the kind of experiment: FAKcd kinase ELISA (inhibition of poly-glu-tyr phosphorylation by FAK(410-689)). Format: biochemical. To be noted: read-out: FAK IC50, 50 μM final ATP.

Structures were worked out from names or drawings and are uncertain.

Regarding `CN(c1ncccc1CNc1nc(Nc2ccnc(Cl)c2)ncc1C(F)(F)F)S(C)(=O)=O`, the half-inhibitory concentration (IC50) amounted to 1.92 nM.
